According to article PMC2707011:
These are yes or no findings as the source states them, for the method shown. Some results given as binding are weak or reduced against the parent protein; the word gives no strength.

Chains of the proteins cited; added tags and fusions are not shown. Residues count along the entry.
UniProt O00602, residues 30-326: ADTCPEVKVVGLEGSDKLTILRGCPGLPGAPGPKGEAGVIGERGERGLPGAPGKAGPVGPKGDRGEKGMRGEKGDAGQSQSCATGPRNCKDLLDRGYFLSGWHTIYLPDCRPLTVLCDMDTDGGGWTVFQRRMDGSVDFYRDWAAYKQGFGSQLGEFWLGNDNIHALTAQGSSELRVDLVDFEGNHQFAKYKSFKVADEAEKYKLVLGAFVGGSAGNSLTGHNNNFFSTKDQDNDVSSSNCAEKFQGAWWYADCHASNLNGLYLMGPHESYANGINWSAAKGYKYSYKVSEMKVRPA

T1: hTectonin (human) (UniProt Q7Z6L1)
T1 sequence: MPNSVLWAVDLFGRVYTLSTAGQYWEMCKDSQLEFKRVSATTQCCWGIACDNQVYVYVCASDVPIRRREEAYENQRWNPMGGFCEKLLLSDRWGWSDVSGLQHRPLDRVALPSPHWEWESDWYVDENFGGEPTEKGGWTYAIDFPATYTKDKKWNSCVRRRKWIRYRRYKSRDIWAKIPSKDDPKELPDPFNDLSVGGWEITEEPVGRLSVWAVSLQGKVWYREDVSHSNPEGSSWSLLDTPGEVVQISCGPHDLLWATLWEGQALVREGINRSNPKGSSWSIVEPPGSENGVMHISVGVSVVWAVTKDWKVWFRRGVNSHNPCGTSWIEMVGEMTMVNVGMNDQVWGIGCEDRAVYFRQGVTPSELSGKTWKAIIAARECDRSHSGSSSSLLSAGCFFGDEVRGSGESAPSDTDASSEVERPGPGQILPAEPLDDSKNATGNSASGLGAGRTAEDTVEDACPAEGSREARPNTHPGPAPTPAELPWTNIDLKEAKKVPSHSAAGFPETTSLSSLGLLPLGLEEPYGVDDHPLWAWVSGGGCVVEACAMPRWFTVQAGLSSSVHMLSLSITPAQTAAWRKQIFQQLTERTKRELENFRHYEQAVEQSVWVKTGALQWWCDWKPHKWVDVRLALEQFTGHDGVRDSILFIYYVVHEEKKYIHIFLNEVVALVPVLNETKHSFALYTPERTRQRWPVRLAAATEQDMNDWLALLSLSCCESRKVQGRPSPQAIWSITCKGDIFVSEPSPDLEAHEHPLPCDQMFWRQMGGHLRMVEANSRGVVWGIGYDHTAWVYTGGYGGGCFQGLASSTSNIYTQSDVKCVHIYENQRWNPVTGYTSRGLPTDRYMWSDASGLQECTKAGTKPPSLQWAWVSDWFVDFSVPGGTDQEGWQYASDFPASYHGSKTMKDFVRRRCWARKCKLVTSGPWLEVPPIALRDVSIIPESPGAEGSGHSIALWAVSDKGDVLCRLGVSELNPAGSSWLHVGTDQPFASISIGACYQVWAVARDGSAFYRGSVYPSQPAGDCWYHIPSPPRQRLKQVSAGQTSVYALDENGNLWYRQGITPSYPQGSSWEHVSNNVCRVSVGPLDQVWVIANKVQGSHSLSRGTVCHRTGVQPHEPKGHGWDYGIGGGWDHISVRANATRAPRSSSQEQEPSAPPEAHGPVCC

T2: hTectonin (human), Q7Z6L1
T2 chain: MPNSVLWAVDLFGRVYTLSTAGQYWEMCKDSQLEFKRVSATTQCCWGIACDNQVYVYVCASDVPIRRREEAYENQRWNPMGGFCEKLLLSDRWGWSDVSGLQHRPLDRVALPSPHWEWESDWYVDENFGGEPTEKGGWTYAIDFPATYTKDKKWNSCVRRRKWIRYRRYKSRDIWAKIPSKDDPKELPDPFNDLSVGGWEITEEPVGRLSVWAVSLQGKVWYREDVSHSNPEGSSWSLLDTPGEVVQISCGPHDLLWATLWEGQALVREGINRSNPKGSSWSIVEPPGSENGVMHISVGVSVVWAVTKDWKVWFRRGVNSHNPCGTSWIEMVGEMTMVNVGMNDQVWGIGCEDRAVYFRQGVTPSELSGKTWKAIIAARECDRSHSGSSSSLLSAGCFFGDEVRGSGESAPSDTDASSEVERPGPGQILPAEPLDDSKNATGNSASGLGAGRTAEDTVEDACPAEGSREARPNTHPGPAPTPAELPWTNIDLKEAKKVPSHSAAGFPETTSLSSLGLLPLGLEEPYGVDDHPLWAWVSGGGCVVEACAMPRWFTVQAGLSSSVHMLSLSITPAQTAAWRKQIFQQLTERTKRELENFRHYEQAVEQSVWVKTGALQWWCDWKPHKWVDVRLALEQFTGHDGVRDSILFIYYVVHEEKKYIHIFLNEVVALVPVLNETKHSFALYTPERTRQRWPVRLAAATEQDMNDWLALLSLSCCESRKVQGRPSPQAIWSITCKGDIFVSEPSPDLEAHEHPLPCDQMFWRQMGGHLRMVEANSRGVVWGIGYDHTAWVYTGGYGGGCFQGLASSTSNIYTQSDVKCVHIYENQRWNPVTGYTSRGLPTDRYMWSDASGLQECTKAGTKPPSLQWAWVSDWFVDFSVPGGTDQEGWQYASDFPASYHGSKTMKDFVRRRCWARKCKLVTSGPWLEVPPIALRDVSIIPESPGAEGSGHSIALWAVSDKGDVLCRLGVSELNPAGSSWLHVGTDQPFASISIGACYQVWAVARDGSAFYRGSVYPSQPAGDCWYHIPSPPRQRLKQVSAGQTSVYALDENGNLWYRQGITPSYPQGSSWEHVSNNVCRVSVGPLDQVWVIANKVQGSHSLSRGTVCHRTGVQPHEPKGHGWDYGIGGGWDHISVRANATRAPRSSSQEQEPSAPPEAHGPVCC


What was measured:
hTectonin (human) = biological target: T1, hTectonin (human); experiment: two-hybrid; S. cerevisiae AH109; bait fused to the Gal4 DNA-binding domain (pGBKT7), prey to the Gal4 activation domain (pGADT7-Rec); selection on SC-Trp-Leu, then growth on QDO agar at 30°C
[1] = biological target: T2, hTectonin (human), Q7Z6L1; experiment: as above; details: remark: other sources report otherwise

binding (hTectonin (human)) | binding [1] | Molecule
binds | – | M-ficolin (from UniProt O00602 30-326)
– | binds | hTectonin, Q7Z6L1 1-1165 (protein) MPNSVLWAVDLFGRVYTLSTAGQYWEMCKDSQLEFKRVSATTQCCWGIACDNQVYVYVCASDVPIRRREEAYENQRWNPMGGFCEKLLLSDRWGWSDVSGLQHRPLDRVALPSPHWEWESDWYVDENFGGEPTEKGGWTYAIDFPATYTKDKKWNSCVRRRKWIRYRRYKSRDIWAKIPSKDDPKELPDPFNDLSVGGWEITEEPVGRLSVWAVSLQGKVWYREDVSHSNPEGSSWSLLDTPGEVVQISCGPHDLLWATLWEGQALVREGINRSNPKGSSWSIVEPPGSENGVMHISVGVSVVWAVTKDWKVWFRRGVNSHNPCGTSWIEMVGEMTMVNVGMNDQVWGIGCEDRAVYFRQGVTPSELSGKTWKAIIAARECDRSHSGSSSSLLSAGCFFGDEVRGSGESAPSDTDASSEVERPGPGQILPAEPLDDSKNATGNSASGLGAGRTAEDTVEDACPAEGSREARPNTHPGPAPTPAELPWTNIDLKEAKKVPSHSAAGFPETTSLSSLGLLPLGLEEPYGVDDHPLWAWVSGGGCVVEACAMPRWFTVQAGLSSSVHMLSLSITPAQTAAWRKQIFQQLTERTKRELENFRHYEQAVEQSVWVKTGALQWWCDWKPHKWVDVRLALEQFTGHDGVRDSILFIYYVVHEEKKYIHIFLNEVVALVPVLNETKHSFALYTPERTRQRWPVRLAAATEQDMNDWLALLSLSCCESRKVQGRPSPQAIWSITCKGDIFVSEPSPDLEAHEHPLPCDQMFWRQMGGHLRMVEANSRGVVWGIGYDHTAWVYTGGYGGGCFQGLASSTSNIYTQSDVKCVHIYENQRWNPVTGYTSRGLPTDRYMWSDASGLQECTKAGTKPPSLQWAWVSDWFVDFSVPGGTDQEGWQYASDFPASYHGSKTMKDFVRRRCWARKCKLVTSGPWLEVPPIALRDVSIIPESPGAEGSGHSIALWAVSDKGDVLCRLGVSELNPAGSSWLHVGTDQPFASISIGACYQVWAVARDGSAFYRGSVYPSQPAGDCWYHIPSPPRQRLKQVSAGQTSVYALDENGNLWYRQGITPSYPQGSSWEHVSNNVCRVSVGPLDQVWVIANKVQGSHSLSRGTVCHRTGVQPHEPKGHGWDYGIGGGWDHISVRANATRAPRSSSQEQEPSAPPEAHGPVCC
